Measured data: PubChem BioAssay AID1259308 (NCATS, 2017)
Aim: 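Candidate targets for better recombinant protein yield in mammalian cells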 (primary screen). Cells: human HEK293 embryonic kidney cells stably expressing firefly luciferase (HEK-CMV-Luc2-Hygro). Reagent: single siRNA against human genes, 0.8 pmol siRNA per well. Duration: 72 h. Measured: 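Reporter luminescence and viable-cell signal on separate replicate plates, given as percent of non-targeting control and median/MAD z-scores, plus per-cell luciferase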. Scale: total luciferase, z-score and total luciferase, % of control: higher = more reporter protein produced; luciferase per cell, z-score: higher = more reporter output per viable cell; viable cells, % of control: higher = more viable cells. Rule for the call: 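Active when the median/MAD z-score for overall luciferase is greater than 3; a gene was taken forward for validation with new siRNAs if at least two of its three siRNAs passed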. Calls: active = raised luciferase; inactive = no rise.
Here is an unselected part of about 59,000 reagents tested. Over the whole deposit, about 1,510 (2.6%) are marked active. 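Calls use total luciferase alone and ignore viability, so some active siRNAs may act by altering cell number.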 Unmarked entries are inactive. Reagents against one gene are numbered here. Reagent sequences are not shown.

gene symbol | reagent no. | total luciferase, z-score | total luciferase, % of control | luciferase per cell, z-score | viable cells, % of control
GRIN2A (glutamate ionotropic receptor NMDA type subunit 2A) | 1 | -0.952 | 63 | -0.832 | 87.6
GRIN2A (glutamate ionotropic receptor NMDA type subunit 2A) | 2 | 0.0573 | 83 | 0.423 | 83
GRIN2A (glutamate ionotropic receptor NMDA type subunit 2A) | 3 | -0.138 | 79.1 | -0.943 | 113
PRAMENP (PRAME N-terminal like, pseudogene) | 1 | 0.0212 | 82.3 | -0.12 | 94.9
PRAMENP (PRAME N-terminal like, pseudogene) | 2 | -0.15 | 78.9 | -0.133 | 91.3
PRAMENP (PRAME N-terminal like, pseudogene) | 3 | 0.877 | 99.3 | 1.71 | 70.8
RNF19A (ring finger protein 19A, RBR E3 ubiquitin protein ligase) | 1 | -1.03 | 61.3 | -1.17 | 93.2
RNF19A (ring finger protein 19A, RBR E3 ubiquitin protein ligase) | 2 | 0.286 | 87.6 | -0.183 | 103
RNF19A (ring finger protein 19A, RBR E3 ubiquitin protein ligase) | 3 | 0.104 | 83.9 | -0.407 | 104
RGMA (repulsive guidance molecule BMP co-receptor a) | 1 | 0.249 | 86.8 | 0.46 | 86
RGMA (repulsive guidance molecule BMP co-receptor a) | 2 | -2.43 | 33.5 | -2.93 | 80.9
RGMA (repulsive guidance molecule BMP co-receptor a) | 3 | 1.69 | 116 | 0.809 | 104
NOL10 (nucleolar protein 10) | 1 | -1.37 | 54.5 | -0.89 | 77.1
NOL10 (nucleolar protein 10) | 2 | -0.335 | 75.2 | -0.589 | 98.2
NOL10 (nucleolar protein 10) | 3 | -0.574 | 70.5 | -0.97 | 102
HOXC9 (homeobox C9) | 1 | -0.134 | 79.2 | -0.0461 | 89.6
HOXC9 (homeobox C9) | 2 | -0.412 | 73.7 | -0.141 | 85.5
HOXC9 (homeobox C9) | 3 | 0.278 | 87.4 | 1.66 | 63

6 successive records from above:
gene symbol | reagent no. | total luciferase, z-score | total luciferase, % of control | luciferase per cell, z-score | viable cells, % of control
PRAMENP (PRAME N-terminal like, pseudogene) | 1 | 0.0212 | 82.3 | -0.12 | 94.9
PRAMENP (PRAME N-terminal like, pseudogene) | 2 | -0.15 | 78.9 | -0.133 | 91.3
PRAMENP (PRAME N-terminal like, pseudogene) | 3 | 0.877 | 99.3 | 1.71 | 70.8
RNF19A (ring finger protein 19A, RBR E3 ubiquitin protein ligase) | 1 | -1.03 | 61.3 | -1.17 | 93.2
RNF19A (ring finger protein 19A, RBR E3 ubiquitin protein ligase) | 2 | 0.286 | 87.6 | -0.183 | 103
RNF19A (ring finger protein 19A, RBR E3 ubiquitin protein ligase) | 3 | 0.104 | 83.9 | -0.407 | 104

Further results follow.
gene symbol | reagent no. | total luciferase, z-score | total luciferase, % of control | luciferase per cell, z-score | viable cells, % of control
MEA1 (male-enhanced antigen 1) | 1 | 4.13 (active) | 164 | 2.95 | 84.4
MEA1 (male-enhanced antigen 1) | 2 | -0.377 | 74.4 | -1.13 | 112
MEA1 (male-enhanced antigen 1) | 3 | -1.6 | 50 | -0.946 | 71.6
MGAT4A | 1 | -0.36 | 74.7 | -0.0676 | 85
MGAT4A | 2 | -0.55 | 70.9 | -0.908 | 101
MGAT4A | 3 | 1.13 | 104 | 1.52 | 78.3
ZNF532 (zinc finger protein 532) | 1 | -0.995 | 62.1 | -0.296 | 75
ZNF532 (zinc finger protein 532) | 2 | 0.193 | 85.7 | -0.424 | 107
ZNF532 (zinc finger protein 532) | 3 | -1.49 | 52.3 | -1.52 | 87.2
TUBA3E (tubulin alpha 3e) | 1 | -0.0372 | 81.1 | 0.216 | 85.7
TUBA3E (tubulin alpha 3e) | 2 | 0.421 | 90.3 | 0.24 | 94.7
TUBA3E (tubulin alpha 3e) | 3 | 0.892 | 99.6 | 1.54 | 74.3
FABP7 (fatty acid binding protein 7) | 1 | 0.716 | 96.1 | 0.729 | 88.7
FABP7 (fatty acid binding protein 7) | 2 | 0.154 | 85 | -0.117 | 97.9
FABP7 (fatty acid binding protein 7) | 3 | -0.533 | 71.3 | -0.789 | 98.1
WBP2P1 (WW domain binding protein 2 pseudogene 1) | 1 | 0.111 | 84.1 | -0.402 | 104
WBP2P1 (WW domain binding protein 2 pseudogene 1) | 2 | 1.31 | 108 | 1.59 | 79.4
WBP2P1 (WW domain binding protein 2 pseudogene 1) | 3 | 0.517 | 92.2 | 1.99 | 61
BMS1P9 (BMS1 pseudogene 9) | 1 | 0.347 | 88.8 | 0.682 | 82.9
BMS1P9 (BMS1 pseudogene 9) | 2 | 6.05 (active) | 202 | 2.95 | 104
BMS1P9 (BMS1 pseudogene 9) | 3 | 0.274 | 87.3 | 1.18 | 71.6
